These are yes or no findings as the source states them, for the method shown. In cells and extracts the contact can be indirect. Binding calls can cover weak binding; strength is not graded here.
Biological target: T1, FBXL21 (UniProt Q9UKT6)
T1 sequence: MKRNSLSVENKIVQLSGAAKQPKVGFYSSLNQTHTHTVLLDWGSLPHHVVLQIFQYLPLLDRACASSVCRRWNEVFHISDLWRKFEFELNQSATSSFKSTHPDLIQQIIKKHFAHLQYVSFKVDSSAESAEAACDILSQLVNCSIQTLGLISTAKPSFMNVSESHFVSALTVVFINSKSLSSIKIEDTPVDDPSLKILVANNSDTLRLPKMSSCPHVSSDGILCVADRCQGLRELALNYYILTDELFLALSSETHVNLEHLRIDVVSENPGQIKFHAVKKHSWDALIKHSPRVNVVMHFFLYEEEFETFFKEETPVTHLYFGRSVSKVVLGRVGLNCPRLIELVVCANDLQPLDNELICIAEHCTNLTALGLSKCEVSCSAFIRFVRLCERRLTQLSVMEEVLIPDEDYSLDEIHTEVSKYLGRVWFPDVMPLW
Assay: co-IP

| Substance | binding |
| --- | --- |
| human CRY2 D347H | binds |
| human CRY2 D467N | binds |
| human CRY2 R460C | binds |
| human CRY2 S436R | binds |
| human CRY2 S532L | binds |
| human CRY2 wildtype | binds |
